Results as given in US20220334101A1, “MODULATING EXTRACELLULAR MATRIX MOVEMENT” (Helmholtz Zentrum Muenchen - Deutsches Forschungszentrum …, priority 2019, published 2022).

Test system: fascia fibroblasts
Experiment: Fascia invasion assay (ex vivo fascia 3D Matrigel culture)
Assay type: cell-based, mouse

Cc1cc(/C=C/c2ccc3cc(N(C)C)ccc3[n+]2C)c(C)n1-c1ccccc1 [Pyrvinium pamoate]
toxic effects to fascia tissues: toxic effects
